Test system: revascularization, unstable angina requiring hospitalization, MI, all causes of death, or stroke
Assay: PROVE IT-TIMI 22: SNP by treatment interaction (high-dose atorvastatin vs standard-dose pravastatin), logistic regression (synergy index), primary composite endpoint
Format: in vivo, human
Settings: for OR (synergy index), PROVEIT, Atorv vs Prav: Caseonly

## CC(C)c1c(C(=O)Nc2ccccc2)c(-c2ccccc2)c(-c2ccc(F)cc2)n1CC[C@@H](O)C[C@@H](O)CC(=O)O [Atorvastatin, atorvastatin]
PROVE-IT, atorvastatin vs pravastatin, rs992695, Imputed, allele C (A1), model ADD, NMISS 442
  OR (SNP by treatment interaction, logistic regression): 1.16
PROVEIT, marker rs198460, cohort, model rec, End-point CHD, atorvastatin vs pravastatin
  OR: 1.55
PROVEIT, marker rs238250, cohort, model add, End-point CVD, atorvastatin vs pravastatin
  OR: 1.24
PROVEIT, marker rs251817, caseonly, model add, End-point CVD, atorvastatin vs pravastatin
  OR: 2.02
PROVEIT, marker rs1015199, cohort, model dom, End-point CVD, atorvastatin vs pravastatin
  OR: 1.93
PROVEIT, marker rs2616548, caseonly, model dom, End-point CHD, atorvastatin vs pravastatin
  OR: 2.02
PROVEIT, marker rs2616552, cohort, model add, End-point CHD, atorvastatin vs pravastatin
  OR: 1.55
PROVEIT, marker rs4686740, caseonly, model rec, End-point CVD, atorvastatin vs pravastatin
  OR: 1.86
PROVEIT, marker rs6474228, caseonly, model dom, End-point CHD, atorvastatin vs pravastatin
  OR: 1.32
PROVEIT, marker rs6746182, cohort, model dom, End-point CHD, atorvastatin vs pravastatin
  OR: 1.25
PROVEIT, marker rs7305949, cohort, model rec, End-point CHD, atorvastatin vs pravastatin
  OR: 2.34
PROVEIT, marker rs7785499, cohort, model rec, End-point CVD, atorvastatin vs pravastatin
  OR: 1.68
PROVEIT, marker rs11148285, caseonly, model rec, End-point CVD, atorvastatin vs pravastatin
  OR: 1.87
PROVEIT, marker rs12265891, caseonly, model rec, End-point CHD, atorvastatin vs pravastatin
  OR: 2.13
PROVEIT, marker rs16885715, caseonly, model dom, End-point CHD, atorvastatin vs pravastatin
  OR: 1.34
PROVEIT, marker rs17048681, caseonly, model add, End-point CVD, atorvastatin vs pravastatin
  OR: 1.25
PROVEIT, rs9960, caseonly, dom, CVD
  OR: 1.37
PROVEIT, rs208025, caseonly, dom, CVD
  OR: 1.55
PROVEIT, rs478859, caseonly, add, CVD
  OR: 1.32
PROVEIT, rs1439269, caseonly, add, CHD
  OR: 1.27
PROVEIT, rs1580713, caseonly, rec, CHD
  OR: 1.55
PROVEIT, rs3732136, caseonly, dom, CHD
  OR: 1.42
PROVEIT, rs6040760, caseonly, dom, CVD
  OR: 1.34
PROVEIT, rs6742894, caseonly, rec, CVD
  OR: 1.94
PROVEIT, rs7068975, caseonly, dom, CHD
  OR: 1.32
PROVEIT, rs9557509, caseonly, dom, CHD
  OR: 1.29
PROVEIT, rs10802865, caseonly, add, CHD
  OR: 1.29
PROVEIT, rs10817479, caseonly, dom, CVD
  OR: 1.77
PROVEIT, rs11077308, caseonly, dom, CHD
  OR: 1.55
PROVEIT, rs12286877, caseonly, dom, CVD
  OR: 2.05
PROVEIT, rs12659030, caseonly, dom, CHD
  OR: 1.27
PROVEIT, rs13411119, caseonly, dom, CVD
  OR: 1.32
SNP rs198462 (A1 G, A2 A), rec model, CHD endpoint
  OR (synergy index), PROVEIT, Atorv vs Prav: 1.92
SNP rs471579 (A1 A, A2 C), add model, CHD endpoint
  OR (synergy index), PROVEIT, Atorv vs Prav: 1.27
SNP rs2882097 allele A, model DOM, Imputed, ATORVA vs PRAVA
  OR: 1.364
SNP rs3793044 allele C, model DOM, Imputed, ATORVA vs PRAVA
  OR: 1.162
SNP rs3806003 allele A, model DOM, Imputed, ATORVA vs PRAVA
  OR: 1.162
SNP rs4291049 allele T, model REC, Imputed, ATORVA vs PRAVA
  OR: 1.16
SNP rs4450660 allele C, model DOM, Imputed, ATORVA vs PRAVA
  OR: 1.275
SNP rs9346951 (A1 A, A2 G), add model, CVD endpoint
  OR (synergy index), PROVEIT, Atorv vs Prav: 1.88
SNP rs10787944 (A1 G, A2 A), dom model, CVD endpoint
  OR (synergy index), PROVEIT, Atorv vs Prav: 1.37
rs238252, allele G, ADD, Imputed, PROVE-IT, vs pravastatin
  OR: 1.155
rs489441 allele G, ADD, Imputed, atorvastatin vs pravastatin
  OR: 1.224
rs608278 allele A model ADD Imputed, ATORVA vs PRAVA
  OR: 1.166
rs742827, allele A, REC, Imputed, atorvastatin vs pravastatin
  OR (SNP x treatment interaction): 2.051
rs879961, allele T, DOM, Imputed, atorvastatin vs pravastatin
  OR (SNP x treatment interaction): 1.245
rs1016030, allele G, ADD, Genotyped
  OR: 1.159
rs1149349, allele T, DOM, Imputed, atorvastatin vs pravastatin
  OR: 1.154
rs1336382 allele T DOM Imputed
  OR: 1.364
rs1336382 allele T, DOM, Imputed, atorvastatin vs pravastatin
  OR: 1.364
rs1336383 allele T DOM Imputed
  OR: 1.364
rs1336383 allele T, DOM, Imputed, atorvastatin vs pravastatin
  OR: 1.364
rs1395748 allele G, DOM, Imputed, atorvastatin vs pravastatin
  OR: 1.231
rs1516855 allele G REC Imputed
  OR: 1.236
rs1524306 allele C, ADD, Imputed, atorvastatin vs pravastatin
  OR: 1.05
rs1694334 allele G ADD Imputed
  OR: 1.156
rs2023651, allele T, ADD, Imputed, PROVE-IT, vs pravastatin
  OR: 1.235
rs2024902, allele A, DOM, Imputed, PROVE-IT, vs pravastatin
  OR: 1.157
rs2024902 allele A (A1), DOM, Imputed, atorvastatin vs pravastatin
  OR: 1.157
rs2247066, allele A, DOM, Imputed, PROVE-IT, vs pravastatin
  OR: 1.231
rs2322100, allele T, REC, Genotyped, PROVE-IT, vs pravastatin
  OR: 2.61
rs2373793, allele G, ADD, Imputed, PROVE-IT, vs pravastatin
  OR: 1.56
rs2882097 allele A, DOM, Imputed, atorvastatin vs pravastatin
  OR: 1.364
rs3793044 allele C, DOM, Imputed, atorvastatin vs pravastatin
  OR: 1.162
rs3806003 allele A, DOM, Imputed, atorvastatin vs pravastatin
  OR: 1.162
rs4450660 allele C, DOM, Imputed, atorvastatin vs pravastatin
  OR: 1.275
rs4586678 allele A, DOM, Imputed, atorvastatin vs pravastatin
  OR: 1.235
rs6040636 allele T model ADD Imputed, ATORVA vs PRAVA
  OR: 1.371
rs6474230 allele T model DOM Imputed, ATORVA vs PRAVA
  OR: 1.32
rs6544721 allele G model DOM Imputed, ATORVA vs PRAVA
  OR: 1.236
rs6994498 allele G model DOM Imputed, ATORVA vs PRAVA
  OR: 1.32
rs7220603, allele A, ADD, Genotyped, atorvastatin vs pravastatin
  OR (SNP x treatment interaction): 1.419
rs7282518, allele T, ADD, Imputed, atorvastatin vs pravastatin
  OR (SNP x treatment interaction): 1.054
rs7305832, allele C, REC, Imputed, atorvastatin vs pravastatin
  OR (SNP x treatment interaction): 2.008
rs7468898 allele T model ADD Imputed, ATORVA vs PRAVA
  OR: 1.05
rs7600050, allele C, ADD, Imputed, atorvastatin vs pravastatin
  OR (SNP x treatment interaction): 1.316
rs7621663, allele G, ADD, Imputed, atorvastatin vs pravastatin
  OR (SNP x treatment interaction): 1.048
rs7639053 allele A model ADD Imputed, ATORVA vs PRAVA
  OR: 1.02
rs7713251 allele C model REC Imputed, ATORVA vs PRAVA
  OR: 1.11
rs7719448, allele G, REC, Imputed, atorvastatin vs pravastatin
  OR (SNP x treatment interaction): 1.235
rs7742476, allele T, DOM, Imputed, atorvastatin vs pravastatin
  OR (SNP x treatment interaction): 1.23
rs7767265, allele G, DOM, Imputed, atorvastatin vs pravastatin
  OR (SNP x treatment interaction): 1.155
rs7767265 allele G model DOM Imputed, ATORVA vs PRAVA
  OR: 1.155
rs7771264, allele T, DOM, Imputed, atorvastatin vs pravastatin
  OR (SNP x treatment interaction): 1.051
rs7808536, allele G, DOM, Imputed, atorvastatin vs pravastatin
  OR (SNP x treatment interaction): 1.374
rs7808536 allele G model DOM Imputed, ATORVA vs PRAVA
  OR: 1.374
rs7894867, allele T, DOM, Imputed, atorvastatin vs pravastatin
  OR (SNP x treatment interaction): 1.426
rs7921834, allele C, DOM, Imputed, atorvastatin vs pravastatin
  OR (SNP x treatment interaction): 1.347
rs8103016, allele A, DOM, Genotyped, atorvastatin vs pravastatin
  OR (SNP x treatment interaction): 1.343
rs9310700, allele C, ADD, Imputed, atorvastatin vs pravastatin
  OR (SNP x treatment interaction): 1.048
rs9815037, allele T, ADD, Imputed, atorvastatin vs pravastatin
  OR (SNP x treatment interaction): 1.048
rs9825349, allele A, ADD, Imputed, atorvastatin vs pravastatin
  OR (SNP x treatment interaction): 1.048
rs9833118, allele G, ADD, Imputed, atorvastatin vs pravastatin
  OR (SNP x treatment interaction): 1.048
rs9834217, allele T, ADD, Imputed, atorvastatin vs pravastatin
  OR (SNP x treatment interaction): 1.017
rs9834217, allele T, DOM, Imputed, atorvastatin vs pravastatin
  OR (SNP x treatment interaction): 1.049
rs9840460, allele T, ADD, Imputed, atorvastatin vs pravastatin
  OR (SNP x treatment interaction): 1.017
rs9840460, allele T, DOM, Imputed, atorvastatin vs pravastatin
  OR (SNP x treatment interaction): 1.049
rs10183431, allele T, DOM, Imputed
  OR: 1.231
rs10270624, allele G, DOM, Imputed, atorvastatin vs pravastatin
  OR: 1.374
rs10509477, allele T, DOM, Imputed
  OR: 1.364
rs10509477, allele T, DOM, Imputed, atorvastatin vs pravastatin
  OR: 1.364
rs10765769, allele C, ADD, Imputed
  OR: 1.226
rs10831422, allele C, ADD, Imputed
  OR: 1.164
rs10865197, allele C, DOM, Imputed
  OR: 1.231
rs10870473, allele A, ADD, Imputed, atorvastatin vs pravastatin
  OR: 1.273
rs10886452, allele A, DOM, Imputed
  OR: 1.376
rs10886452, allele A, DOM, Imputed, atorvastatin vs pravastatin
  OR: 1.376
rs10886526, allele C, DOM, Imputed
  OR: 1.364
rs10886526, allele C, DOM, Imputed, atorvastatin vs pravastatin
  OR: 1.364
rs10972978, allele G, DOM, Imputed
  OR: 1.24
rs10974028, allele G, DOM, Genotyped
  OR: 1.224
rs11021302, allele A, ADD, Imputed
  OR: 1.164
rs11198877, allele T, DOM, Imputed
  OR: 1.369
rs11198877, allele T, DOM, Imputed, atorvastatin vs pravastatin
  OR: 1.369
rs11198942, allele T, DOM, Imputed
  OR: 1.364
rs11198942, allele T, DOM, Imputed, atorvastatin vs pravastatin
  OR: 1.364
rs12509758 allele C, DOM, Imputed, atorvastatin vs pravastatin
  OR: 1.34
rs12543110 allele G DOM Imputed
  OR: 1.32
rs13194907 allele A DOM Imputed
  OR: 1.162
rs13194907 allele A, DOM, Imputed, atorvastatin vs pravastatin
  OR: 1.162
rs13195745 allele A DOM Imputed
  OR: 1.162
rs13195745 allele A, DOM, Imputed, atorvastatin vs pravastatin
  OR: 1.162
